Laboratory results: patent publication US12393007B2, “Method for adapting optical properties of an immersion mixture, and immersion mixtures and components thereof” (Carl Zeiss Microscopy GmbH, priority 2018, dated 2025)
For at least one compound, name, drawing or mass did not settle the structure.

Assay: Refractive index ne at 23° C., reference wavelength 546.1 nm
Format: physicochemical

COC(=O)Cc1ccccc1 [methylphenyl acetate]
ne (refractive index) of the substance: 1.5092
